This passage reports binding results from patent US20260022343A1 (AFFYXELL THERAPEUTICS, published 2026).

Sequences of proteins named here, by UniProt entry; tags and fusion partners are left off. Residues count along the entry.
UniProt P29965, residues 108-261: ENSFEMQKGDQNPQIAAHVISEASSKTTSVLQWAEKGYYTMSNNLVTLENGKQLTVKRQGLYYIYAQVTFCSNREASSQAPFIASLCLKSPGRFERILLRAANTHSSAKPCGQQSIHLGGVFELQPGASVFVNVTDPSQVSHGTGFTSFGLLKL

Results are given in words; binding and its absence hold for the method and conditions named. Some entries that bind do so weakly or less than the wild type.

Assay [1] has as its target recombinant human CD40L (R&D Systems, 6420-CL-025/CF) (human) (UniProt P29965). Kind of assay: binding ELISA on a plate coated with recombinant human CD40L, concentrated culture fluid in 1/3 serial dilution, TMB substrate, O.D. 450 nm. Background: An ELISA detects its analyte on a solid surface through an enzyme-linked reagent.
Assay [2] shares this target. Nature of the assay: conclusion from binding ELISA and HEK-Blue CD40L assay.

B1: anti-CD40L stefin A protein variant XT75 (SEQ ID NO: 105), secreted by gene-introduced MSC (eMSC) (designed binder)
chain: IPGGLSEAKPATPEIQEIVDKVKPQLEEKTGETYGKLEAVQYKTQVVHYYVHYNDQGTNYYIKVRAGDNKYMHLKVFKSLWGENLFAKWEDLVLTGYQVDKNKDDELTGFAEAAAKEAAAKEAAAKEAAAKEAAAKEAAAKMIPGGLSEAKPATPEIQEIVDKVKPQLEEKTGETYGKLEAVQYKTQVVHYYVHYNDQGTNYYIKVRAGDNKYMHLKVFKSLWGENLFAKWEDLVLTGYQVDKNKDDELTGFAEAAAKEAAAKEAAAKEAAAKEAAAKEAAAKMIPGGLSEAKPATPEIQEIVDKVKPQLEEKTGETYGKLEAVQYKTQVVHYYVHYNDQGTNYYIKVRAGDNKYMHLKVFKSLWGENLFAKWEDLVLTGYQVDKNKDDELTGFAEAAAKEAAAKEAAAKEAAAKEAAAKEAAAKMIPRGLSEAKPATPEIQEIVDKVKPQLEEKTGETYGKLEAVQYKTQVLANFFQRRWPGSTNYYIKVRAGDNKYMHLKVFNGPWKFRNTDRGADRVLTGYQVDKNKDDELTGF
notes: By their DNA these vectors appear to encode a further C-terminal Myc/His tag and a T2A remnant; also called AFX01-230 XT75(C); eMSC (XT75, w/EF1A)
As to B1, the binding entry in assay [1] and in assay [2] was “binds” in each case.
